PubChem BioAssay AID504764 – Drosophila RNAi Screening Center – 2011

Purpose: 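Genome-wide screen for regulators of Notch-driven gene expression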 (primary screen)
System: Drosophila Kc167 cells
Knock-down reagent: long dsRNA against Drosophila genes
Duration: about 5 days (4 days dsRNA, then 24 h after transfection)
Challenge: transfection of constitutively active membrane-tethered Notch lacking the extracellular domain, read 24 h later
Read-out: 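Firefly luciferase from an E(spl)m3 reporter with active Notch, plus control-promoter and uninduced reporter wells for normalisation; unnormalised counts, duplicate wells a and b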
Direction: induced reporter light, run 1, well a and induced reporter light, run 1, well b: higher = more light from the Notch target reporter with active Notch; control promoter light, run 1, well a and control promoter light, run 1, well b: higher = more light from the viral control promoter (cell number, transfection, viability); uninduced reporter light, run 1, well a: higher = more light from the Notch target reporter without active Notch
Hit rule: 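Wells with low control signal or poorly matching duplicates excluded; duplicates averaged; per source plate, z beyond ±2 for induced/control log2 ratio or beyond ±1.8 for induced/uninduced marks a hit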
Meaning of the calls: active = modifier hit (raised or lowered Notch signal); inactive = not a hit
The deposit covers about 22,000 reagents; this is a random part of those that have a named target and a result. Over the whole deposit, 403 (1.9%) were called active. 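Unnormalised raw counts per well; ratio z-scores behind the hit calls and whether each hit raises or lowers signal are not deposited.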 Reagents against one gene are numbered here. The record does not give: the amount of reagent.

Which result is listed for Trxr2?
induced reporter light, run 1, well a: 1.49e5; induced reporter light, run 1, well b: 1.26e5; control promoter light, run 1, well a: 1.20e5; control promoter light, run 1, well b: 1.22e5; uninduced reporter light, run 1, well a: 12795; Call: inactive

How did the screen score CG33339?
Call: inactive

For tut, what does the deposit list?
induced reporter light, run 1, well a: 2.02e5; induced reporter light, run 1, well b: 1.92e5; control promoter light, run 1, well a: 3.05e5; control promoter light, run 1, well b: 2.39e5; uninduced reporter light, run 1, well a: 13160; Call: inactive

What did the screen give for CG3625 #1?
induced reporter light, run 1, well a: 1.01e5; induced reporter light, run 1, well b: 1.00e5; control promoter light, run 1, well a: 1.65e5; control promoter light, run 1, well b: 1.80e5; uninduced reporter light, run 1, well a: 8480; Call: inactive

How did the screen score CG3625 #2?
induced reporter light, run 1, well a: 2.03e5; induced reporter light, run 1, well b: 2.29e5; control promoter light, run 1, well a: 1.64e5; control promoter light, run 1, well b: 1.90e5; uninduced reporter light, run 1, well a: 22020; Call: inactive

With Rbcn-3B, how do the results read?
induced reporter light, run 1, well a: 83460; induced reporter light, run 1, well b: 71310; control promoter light, run 1, well a: 88850; control promoter light, run 1, well b: 99315; uninduced reporter light, run 1, well a: 3840; Call: inactive

With HPS1, what does the deposit list?
induced reporter light, run 1, well a: 1.71e5; induced reporter light, run 1, well b: 1.86e5; control promoter light, run 1, well a: 2.37e5; control promoter light, run 1, well b: 1.94e5; uninduced reporter light, run 1, well a: 16592; Call: inactive

What is on record for Etl1?
induced reporter light, run 1, well a: 1.90e5; induced reporter light, run 1, well b: 2.10e5; control promoter light, run 1, well a: 2.21e5; control promoter light, run 1, well b: 1.96e5; uninduced reporter light, run 1, well a: 20460; Call: inactive

What did the screen give for CG8117?
induced reporter light, run 1, well a: 1.03e5; induced reporter light, run 1, well b: 1.09e5; control promoter light, run 1, well a: 1.45e5; control promoter light, run 1, well b: 1.10e5; uninduced reporter light, run 1, well a: 12630; Call: inactive

How did the screen score GMF?
induced reporter light, run 1, well a: 2.14e5; induced reporter light, run 1, well b: 1.87e5; control promoter light, run 1, well a: 1.92e5; control promoter light, run 1, well b: 1.83e5; uninduced reporter light, run 1, well a: 14710; Call: inactive

With Calr, what does the deposit list?
induced reporter light, run 1, well a: 1.06e5; induced reporter light, run 1, well b: 1.20e5; control promoter light, run 1, well a: 91920; control promoter light, run 1, well b: 77045; uninduced reporter light, run 1, well a: 5805; Call: inactive

What did the screen give for CG4768?
induced reporter light, run 1, well a: 1.28e5; induced reporter light, run 1, well b: 1.18e5; control promoter light, run 1, well a: 1.34e5; control promoter light, run 1, well b: 1.13e5; uninduced reporter light, run 1, well a: 10525; Call: active

Entries listed so far marked active:
CG4768 — induced reporter light, run 1, well a: 1.28e5; induced reporter light, run 1, well b: 1.18e5; control promoter light, run 1, well a: 1.34e5; control promoter light, run 1, well b: 1.13e5; uninduced reporter light, run 1, well a: 10525; Call: active
